The values below come from article PMC4438304.

Chains of the proteins cited; added tags and fusions are not shown.
UniProt Q01939: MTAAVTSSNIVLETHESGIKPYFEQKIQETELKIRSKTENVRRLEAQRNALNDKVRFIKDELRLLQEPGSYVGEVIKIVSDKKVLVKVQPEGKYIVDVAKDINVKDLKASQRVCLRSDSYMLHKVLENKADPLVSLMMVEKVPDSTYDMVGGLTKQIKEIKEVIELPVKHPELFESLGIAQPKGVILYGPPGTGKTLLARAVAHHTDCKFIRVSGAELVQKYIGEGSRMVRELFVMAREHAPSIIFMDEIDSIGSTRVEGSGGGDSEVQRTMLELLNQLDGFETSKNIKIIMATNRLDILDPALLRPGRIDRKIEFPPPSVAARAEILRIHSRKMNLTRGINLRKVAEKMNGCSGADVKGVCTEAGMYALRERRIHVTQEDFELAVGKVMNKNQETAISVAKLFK
UniProt P43588: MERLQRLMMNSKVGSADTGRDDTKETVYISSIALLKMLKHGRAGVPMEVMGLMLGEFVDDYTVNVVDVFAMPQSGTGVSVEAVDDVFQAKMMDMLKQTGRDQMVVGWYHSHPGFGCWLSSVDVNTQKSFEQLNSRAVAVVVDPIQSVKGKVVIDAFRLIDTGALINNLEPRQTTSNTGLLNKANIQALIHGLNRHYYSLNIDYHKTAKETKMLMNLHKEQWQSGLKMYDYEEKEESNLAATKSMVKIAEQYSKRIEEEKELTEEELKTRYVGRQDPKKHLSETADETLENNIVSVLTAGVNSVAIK

In assay [1] the target is Rpt6 (S. cerevisiae) (UniProt Q01939). Briefly: pull-down; each RPT ATPase purified and immobilized on CH-sepharose beads, incubated with full-length Rpn11 or Rpn11ΔC; BSA beads as mock; anti-Rpn11 immunoblot. For orientation: A western blot detects proteins with antibodies after separation by electrophoresis.
Assay [2] concerns the target T1, Rpt1 (S. cerevisiae) (UniProt P33299).
T1 sequence: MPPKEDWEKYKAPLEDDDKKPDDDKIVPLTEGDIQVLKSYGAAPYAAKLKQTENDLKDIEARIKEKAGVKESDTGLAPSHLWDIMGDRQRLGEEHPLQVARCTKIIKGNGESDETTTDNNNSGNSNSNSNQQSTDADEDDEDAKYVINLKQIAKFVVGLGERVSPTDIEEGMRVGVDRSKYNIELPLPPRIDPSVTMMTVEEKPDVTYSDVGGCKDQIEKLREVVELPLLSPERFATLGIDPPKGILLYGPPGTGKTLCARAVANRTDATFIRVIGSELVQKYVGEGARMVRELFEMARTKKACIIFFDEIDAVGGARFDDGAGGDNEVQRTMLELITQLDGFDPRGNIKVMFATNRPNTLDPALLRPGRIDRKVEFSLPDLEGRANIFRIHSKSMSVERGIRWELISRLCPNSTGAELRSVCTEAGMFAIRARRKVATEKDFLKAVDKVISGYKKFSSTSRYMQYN
The assay is described as above.

In assay [3] the target is T2, Rpt3 (S. cerevisiae) (UniProt P33298).
T2 sequence: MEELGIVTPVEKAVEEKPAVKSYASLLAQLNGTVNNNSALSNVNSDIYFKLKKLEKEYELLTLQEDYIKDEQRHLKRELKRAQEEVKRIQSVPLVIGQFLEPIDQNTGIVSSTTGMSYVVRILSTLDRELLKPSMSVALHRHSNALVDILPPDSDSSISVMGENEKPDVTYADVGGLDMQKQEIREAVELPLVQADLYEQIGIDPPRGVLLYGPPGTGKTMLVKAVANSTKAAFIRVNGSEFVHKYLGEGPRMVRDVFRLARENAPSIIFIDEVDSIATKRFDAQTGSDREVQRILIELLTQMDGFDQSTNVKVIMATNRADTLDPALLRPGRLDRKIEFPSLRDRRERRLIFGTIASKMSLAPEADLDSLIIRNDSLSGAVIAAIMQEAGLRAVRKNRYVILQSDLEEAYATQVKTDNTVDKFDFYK
The description is as above.

In assay [4] the target is His6–Rpn11 (S. cerevisiae) (UniProt P43588). The assay can be described thus: pull-down + SEC; His6–Rpn11 co-expressed in E. coli with module 1 subunits (Rpn8 present); Ni–NTA, then S400 size exclusion (50 mM Tris pH 7.4, 5% glycerol, 100 mM NaCl); SDS/PAGE, bands confirmed by MS/MS. A general note: Size exclusion chromatography separates by hydrodynamic size, large species first.

These are yes or no findings as the source states them, for the method shown. Binding seen in cells or lysates may run through a third protein. Some entries that bind do so weakly or less than the wild type.

Take “full-length Rpn11 (from UniProt P43588 1-306)”: the binding result in assay [1], in assay [2] and in assay [3] was “binds” each time.

B1: Rpn8 (protein, UniProt Q08723 1-338)
chain: MSLQHEKVTIAPLVLLSALDHYERTQTKENKRCVGVILGDANSSTIRVTNSFALPFEEDEKNSDVWFLDHNYIENMNEMCKKINAKEKLIGWYHSGPKLRASDLKINELFKKYTQNNPLLLIVDVKQQGVGLPTDAYVAIEQVKDDGTSTEKTFLHLPCTIEAEEAEEIGVEHLLRDVRDQAAGGLSIRLTNQLKSLKGLQSKLKDVVEYLDKVINKELPINHTILGKLQDVFNLLPNLGTPDDDEIDVENHDRINISNNLQKALTVKTNDELMVIYISNLVRSIIAFDDLIENKIQNKKIQEQRVKDKQSKVSDDSESESGDKEATAPLIQRKNKKN
On to B1, for which, in assay [4], the binding entry is given as “binds”.
